Experimental data published in the supplement of paper PMC10849652.
The list shows a part of the results.

Sequences of proteins named here, by UniProt entry; tags and fusion partners are left off. A change or cut given only in a name is not applied to a line headed by its entry.
UniProt Q9BVC5: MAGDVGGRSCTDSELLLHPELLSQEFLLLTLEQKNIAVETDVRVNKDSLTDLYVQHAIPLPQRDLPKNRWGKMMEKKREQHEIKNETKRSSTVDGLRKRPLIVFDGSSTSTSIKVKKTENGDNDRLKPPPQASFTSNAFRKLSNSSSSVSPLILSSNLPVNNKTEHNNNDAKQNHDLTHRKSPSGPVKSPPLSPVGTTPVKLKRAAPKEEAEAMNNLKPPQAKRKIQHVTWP
UniProt Q5T5Y3: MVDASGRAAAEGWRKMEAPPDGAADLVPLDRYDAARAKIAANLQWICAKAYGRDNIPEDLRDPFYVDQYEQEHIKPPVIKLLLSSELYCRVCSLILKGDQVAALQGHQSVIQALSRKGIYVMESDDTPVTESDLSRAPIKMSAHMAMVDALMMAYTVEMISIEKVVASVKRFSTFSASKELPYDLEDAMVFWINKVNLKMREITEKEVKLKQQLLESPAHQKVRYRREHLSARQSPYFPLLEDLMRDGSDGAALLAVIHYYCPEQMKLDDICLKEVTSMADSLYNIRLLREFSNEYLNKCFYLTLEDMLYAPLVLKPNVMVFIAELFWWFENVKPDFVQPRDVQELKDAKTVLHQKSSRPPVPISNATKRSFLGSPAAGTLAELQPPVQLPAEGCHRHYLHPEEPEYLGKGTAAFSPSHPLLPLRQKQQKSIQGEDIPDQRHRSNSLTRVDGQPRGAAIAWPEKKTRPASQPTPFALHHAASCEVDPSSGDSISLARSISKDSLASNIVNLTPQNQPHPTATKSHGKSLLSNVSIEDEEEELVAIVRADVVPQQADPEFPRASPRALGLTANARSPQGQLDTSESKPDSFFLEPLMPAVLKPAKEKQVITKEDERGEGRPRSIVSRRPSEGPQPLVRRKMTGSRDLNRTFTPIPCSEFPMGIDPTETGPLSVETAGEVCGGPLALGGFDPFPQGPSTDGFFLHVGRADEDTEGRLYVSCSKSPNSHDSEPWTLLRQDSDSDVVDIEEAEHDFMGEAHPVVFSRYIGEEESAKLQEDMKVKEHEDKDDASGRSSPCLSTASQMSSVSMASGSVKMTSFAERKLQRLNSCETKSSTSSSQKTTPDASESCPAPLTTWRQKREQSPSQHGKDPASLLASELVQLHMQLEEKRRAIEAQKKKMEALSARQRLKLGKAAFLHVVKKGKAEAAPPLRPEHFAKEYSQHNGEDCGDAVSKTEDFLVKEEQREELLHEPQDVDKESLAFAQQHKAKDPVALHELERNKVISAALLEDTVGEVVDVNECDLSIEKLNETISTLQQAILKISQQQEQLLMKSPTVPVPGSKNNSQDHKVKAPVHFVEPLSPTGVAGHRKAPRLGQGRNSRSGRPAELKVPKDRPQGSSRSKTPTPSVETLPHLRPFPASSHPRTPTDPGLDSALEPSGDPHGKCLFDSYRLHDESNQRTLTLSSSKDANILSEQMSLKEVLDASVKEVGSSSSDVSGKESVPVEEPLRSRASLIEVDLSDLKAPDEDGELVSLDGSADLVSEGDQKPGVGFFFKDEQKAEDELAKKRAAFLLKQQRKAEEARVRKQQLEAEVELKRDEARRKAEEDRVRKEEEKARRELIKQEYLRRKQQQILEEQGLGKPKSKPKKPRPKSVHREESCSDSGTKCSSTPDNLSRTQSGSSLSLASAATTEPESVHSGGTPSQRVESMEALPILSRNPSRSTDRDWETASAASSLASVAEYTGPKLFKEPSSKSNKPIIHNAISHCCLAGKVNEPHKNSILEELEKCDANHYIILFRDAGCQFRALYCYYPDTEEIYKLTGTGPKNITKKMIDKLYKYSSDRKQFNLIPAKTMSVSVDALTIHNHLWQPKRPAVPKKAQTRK
UniProt P40121: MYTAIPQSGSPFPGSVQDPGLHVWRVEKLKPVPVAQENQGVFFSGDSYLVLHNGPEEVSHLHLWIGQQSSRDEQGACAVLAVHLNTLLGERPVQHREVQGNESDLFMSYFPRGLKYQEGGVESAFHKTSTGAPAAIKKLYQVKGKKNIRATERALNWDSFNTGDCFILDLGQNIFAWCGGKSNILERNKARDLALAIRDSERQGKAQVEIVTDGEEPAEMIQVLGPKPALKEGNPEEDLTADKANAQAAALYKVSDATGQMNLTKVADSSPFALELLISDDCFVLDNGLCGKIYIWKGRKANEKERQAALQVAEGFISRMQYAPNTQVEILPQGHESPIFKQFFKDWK
UniProt Q13895: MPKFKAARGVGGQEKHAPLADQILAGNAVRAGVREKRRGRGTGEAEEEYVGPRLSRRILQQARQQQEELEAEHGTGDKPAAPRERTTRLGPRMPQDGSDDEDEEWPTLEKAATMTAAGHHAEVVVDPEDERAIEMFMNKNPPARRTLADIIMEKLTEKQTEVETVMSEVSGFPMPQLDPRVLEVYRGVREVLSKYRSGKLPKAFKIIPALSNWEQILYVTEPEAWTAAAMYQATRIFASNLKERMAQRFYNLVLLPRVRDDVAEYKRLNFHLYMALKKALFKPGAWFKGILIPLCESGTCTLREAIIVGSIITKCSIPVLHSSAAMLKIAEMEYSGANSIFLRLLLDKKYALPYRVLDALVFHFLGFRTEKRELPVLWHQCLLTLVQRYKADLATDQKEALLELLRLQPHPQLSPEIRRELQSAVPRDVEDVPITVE
UniProt O95873: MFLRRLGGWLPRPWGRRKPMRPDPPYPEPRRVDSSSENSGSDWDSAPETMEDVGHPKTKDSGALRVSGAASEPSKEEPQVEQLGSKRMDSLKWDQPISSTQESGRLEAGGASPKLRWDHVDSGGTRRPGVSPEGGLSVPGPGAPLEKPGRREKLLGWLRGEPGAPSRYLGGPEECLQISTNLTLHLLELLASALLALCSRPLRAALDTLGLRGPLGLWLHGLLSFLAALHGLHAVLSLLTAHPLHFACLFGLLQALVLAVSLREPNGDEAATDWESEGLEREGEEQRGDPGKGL
UniProt Q96GQ5: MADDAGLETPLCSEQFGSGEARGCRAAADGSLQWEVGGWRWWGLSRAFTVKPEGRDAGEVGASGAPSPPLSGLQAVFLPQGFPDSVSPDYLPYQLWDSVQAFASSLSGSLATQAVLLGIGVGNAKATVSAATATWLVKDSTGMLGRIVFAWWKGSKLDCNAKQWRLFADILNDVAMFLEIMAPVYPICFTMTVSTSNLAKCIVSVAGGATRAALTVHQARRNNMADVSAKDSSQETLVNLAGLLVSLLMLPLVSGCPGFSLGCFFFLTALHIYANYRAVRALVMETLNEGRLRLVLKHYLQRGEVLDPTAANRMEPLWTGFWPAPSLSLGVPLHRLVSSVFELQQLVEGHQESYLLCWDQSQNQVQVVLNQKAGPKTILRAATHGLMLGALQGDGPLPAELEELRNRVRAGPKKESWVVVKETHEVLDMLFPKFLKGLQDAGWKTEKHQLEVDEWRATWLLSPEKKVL
UniProt O43852: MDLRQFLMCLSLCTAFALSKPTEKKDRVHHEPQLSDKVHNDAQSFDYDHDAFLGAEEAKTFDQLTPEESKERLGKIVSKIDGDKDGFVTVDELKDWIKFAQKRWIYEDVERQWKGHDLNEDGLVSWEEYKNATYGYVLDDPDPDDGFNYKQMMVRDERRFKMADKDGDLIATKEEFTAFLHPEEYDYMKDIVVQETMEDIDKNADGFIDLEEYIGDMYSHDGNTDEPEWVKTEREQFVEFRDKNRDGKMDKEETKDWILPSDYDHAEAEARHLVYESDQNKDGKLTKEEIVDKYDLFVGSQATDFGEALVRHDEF
UniProt Q8WUR7: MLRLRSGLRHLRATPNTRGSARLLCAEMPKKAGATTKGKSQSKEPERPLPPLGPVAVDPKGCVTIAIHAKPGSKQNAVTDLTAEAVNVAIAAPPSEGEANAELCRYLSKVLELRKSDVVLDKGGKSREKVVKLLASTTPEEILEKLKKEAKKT
UniProt Q9H3J6: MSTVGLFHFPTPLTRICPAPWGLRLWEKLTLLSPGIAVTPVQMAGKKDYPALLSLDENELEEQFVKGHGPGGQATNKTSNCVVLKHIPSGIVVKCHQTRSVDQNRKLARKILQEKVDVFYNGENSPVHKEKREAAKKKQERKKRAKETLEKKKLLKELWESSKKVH
UniProt Q14012: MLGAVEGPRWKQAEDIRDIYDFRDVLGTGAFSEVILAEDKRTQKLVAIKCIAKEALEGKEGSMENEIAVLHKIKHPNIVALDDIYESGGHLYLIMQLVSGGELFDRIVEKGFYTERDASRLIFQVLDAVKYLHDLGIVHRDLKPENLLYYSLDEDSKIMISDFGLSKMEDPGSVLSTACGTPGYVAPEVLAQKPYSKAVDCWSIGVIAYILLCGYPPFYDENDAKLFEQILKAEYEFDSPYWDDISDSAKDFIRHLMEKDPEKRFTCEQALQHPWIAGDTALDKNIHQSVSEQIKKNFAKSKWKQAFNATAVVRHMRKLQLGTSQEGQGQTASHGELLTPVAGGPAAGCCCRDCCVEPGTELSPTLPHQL
UniProt Q8N6N3: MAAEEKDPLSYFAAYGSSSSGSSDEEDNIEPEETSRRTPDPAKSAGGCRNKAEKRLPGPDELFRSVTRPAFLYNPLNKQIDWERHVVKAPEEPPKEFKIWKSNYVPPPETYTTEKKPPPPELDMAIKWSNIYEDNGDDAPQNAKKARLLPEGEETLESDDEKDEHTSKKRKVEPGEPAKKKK
UniProt Q96B23: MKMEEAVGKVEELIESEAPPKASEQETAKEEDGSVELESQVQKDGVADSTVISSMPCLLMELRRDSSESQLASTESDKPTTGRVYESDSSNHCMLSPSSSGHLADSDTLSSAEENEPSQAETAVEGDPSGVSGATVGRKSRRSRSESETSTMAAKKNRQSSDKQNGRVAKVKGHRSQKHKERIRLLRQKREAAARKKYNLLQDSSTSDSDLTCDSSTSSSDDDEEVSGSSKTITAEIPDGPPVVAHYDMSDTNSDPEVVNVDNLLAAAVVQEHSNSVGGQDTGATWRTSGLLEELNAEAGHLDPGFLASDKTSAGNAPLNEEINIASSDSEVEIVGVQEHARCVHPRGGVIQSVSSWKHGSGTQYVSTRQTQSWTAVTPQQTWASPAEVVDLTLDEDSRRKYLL
UniProt Q96N11, whole entry, looked up: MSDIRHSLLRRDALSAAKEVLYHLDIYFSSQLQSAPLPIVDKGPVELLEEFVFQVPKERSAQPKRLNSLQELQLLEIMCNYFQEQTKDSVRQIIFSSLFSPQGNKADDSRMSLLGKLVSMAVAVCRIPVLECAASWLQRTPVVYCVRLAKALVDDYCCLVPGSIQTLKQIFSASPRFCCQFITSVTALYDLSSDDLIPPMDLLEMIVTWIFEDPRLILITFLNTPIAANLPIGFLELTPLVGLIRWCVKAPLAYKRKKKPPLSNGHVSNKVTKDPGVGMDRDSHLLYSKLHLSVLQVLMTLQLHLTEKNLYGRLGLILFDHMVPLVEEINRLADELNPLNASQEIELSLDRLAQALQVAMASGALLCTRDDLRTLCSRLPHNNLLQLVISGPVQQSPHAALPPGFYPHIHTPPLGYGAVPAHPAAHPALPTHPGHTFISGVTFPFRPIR
UniProt Q9Y6E2: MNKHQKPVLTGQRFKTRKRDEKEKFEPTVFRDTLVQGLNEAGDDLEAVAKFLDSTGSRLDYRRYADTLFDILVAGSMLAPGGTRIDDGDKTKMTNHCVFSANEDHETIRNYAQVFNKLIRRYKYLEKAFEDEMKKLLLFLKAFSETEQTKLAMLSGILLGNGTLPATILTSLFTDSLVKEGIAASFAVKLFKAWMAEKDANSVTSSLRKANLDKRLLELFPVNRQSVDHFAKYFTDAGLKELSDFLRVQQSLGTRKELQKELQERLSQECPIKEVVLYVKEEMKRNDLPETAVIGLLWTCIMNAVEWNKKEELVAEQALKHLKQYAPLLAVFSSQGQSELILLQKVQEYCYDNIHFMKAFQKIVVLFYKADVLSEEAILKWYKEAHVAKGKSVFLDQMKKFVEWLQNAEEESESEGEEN
UniProt O14523: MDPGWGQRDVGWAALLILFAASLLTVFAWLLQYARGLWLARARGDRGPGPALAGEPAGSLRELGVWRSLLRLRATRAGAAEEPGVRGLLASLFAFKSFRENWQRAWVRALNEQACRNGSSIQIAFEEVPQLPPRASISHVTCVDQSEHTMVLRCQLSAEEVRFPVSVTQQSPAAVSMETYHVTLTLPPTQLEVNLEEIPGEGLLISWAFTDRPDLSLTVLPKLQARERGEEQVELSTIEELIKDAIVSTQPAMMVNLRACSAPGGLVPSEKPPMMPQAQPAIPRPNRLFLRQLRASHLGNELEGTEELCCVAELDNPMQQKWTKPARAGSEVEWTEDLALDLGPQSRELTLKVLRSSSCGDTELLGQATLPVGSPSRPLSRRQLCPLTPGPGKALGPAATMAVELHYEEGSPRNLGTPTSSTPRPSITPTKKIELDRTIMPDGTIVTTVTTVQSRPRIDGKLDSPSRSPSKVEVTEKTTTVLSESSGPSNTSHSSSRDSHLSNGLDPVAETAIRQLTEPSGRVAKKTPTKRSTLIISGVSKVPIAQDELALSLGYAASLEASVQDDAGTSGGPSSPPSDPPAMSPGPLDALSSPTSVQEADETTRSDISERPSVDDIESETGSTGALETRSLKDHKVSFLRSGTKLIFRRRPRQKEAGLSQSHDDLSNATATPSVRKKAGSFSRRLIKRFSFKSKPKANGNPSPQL

Experiments:
Experiment in all cases: log2 fold change, soluble protein after heating vs DMSO (PISA); higher = thermal stabilisation; K562 lysate, 10 uM; active = over 0.2 and 3.5 SD of the protein, either way, in both replicates (recomputed)
erlotinib = compound: C#Cc1cccc(Nc2ncnc3cc(OCCOC)c(OCCOC)cc23)c1 [erlotinib]
Method in brief: (§1)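 Log-two fold change in thermal stability relative to solvent controls is reported from duplicates. For each sample, crude K562 extract from dounce-homogenised pellets in PBS pH 7.4 with 1 mM MgCl2, at 1 mg/mL protein, was treated with 10 μM compound for 30 min. Aliquots heated for 3 min across 48°C-58°C were pooled, brought to 0.5% NP-40 at 4°C and cleared at 21,000xg for 90 min. The supernatant was quantified by TMTpro 16plex LC-MS/MS with channel sums equalised.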

[1] = compound: C/C(=N\NC(=O)C1=CC(=CC=C1)S(=O)(=O)N2CCOCC2)/C3=C(C=CC(=C3)Cl)O
Method in brief: as §1

[2] = compound: C1=CC(=CC=C1C2=NC3=C(N2)C=C(C=C3)C(=O)N)OC4=CC=C(C=C4)Cl
Method in brief: as §1

[3] = compound: C1=CC2=C(C=CC(=C2)/C=C\3/C(=O)NC(=NCC4=CC=CS4)S3)N=C1
Method in brief: as §1

[4] = compound: C1=CC2=NC=CN=C2C=C1/C=C/3\C(=O)NC(=O)S3
Method in brief: as §1

[5] = compound: C1=CC=C(C=C1)C2=NC(=C(N2)C3=CC=NC=C3)C4=CC(=C(C=C4)Cl)O
Method in brief: as §1

[6] = compound: C1=CC=C2C(=C1)C3=NNC4=CC=CC(=C43)C2=O
Method in brief: as §1

[7] = compound: C1CCN(C1)C(=O)NC2=CC=CC(=C2)NC3=NC=C(C(=N3)NCCC4=CN=CN4)Br
Method in brief: as §1

[8] = compound: C1CN(CCC1(CC2=CC=C(C=C2)Cl)N)C3=NC=NC4=C3C=CN4
Method in brief: as §1

IRAK-1-4 Inhibitor I = compound: C1COCCN1CCN2C3=CC=CC=C3N=C2NC(=O)C4=CC(=CC=C4)[N+](=O)[O-] [IRAK-1-4 Inhibitor I]
Method in brief: as §1

Measured: log2 fold change

CABIN1 (UniProt Q9Y6J0)
inactive: erlotinib -0.052 | [1] 0.03 | [2] 0.084 | [3] 0.045 | [4] 0.028 | [5] 0.02 | [6] 0.011 | [7] -0.04 | [8] -0.184 | IRAK-1-4 Inhibitor I -0.097

CALCOCO1 (UniProt Q9P1Z2)
inactive: erlotinib -0.014 | [1] 0.775 | [2] -0.061 | [3] 0.013 | [4] -0.048 | [5] 0.048 | [6] -0.032 | [7] -0.038 | [8] 0.044 | IRAK-1-4 Inhibitor I -0.008

C2orf49 (UniProt Q9BVC5)
inactive: erlotinib -0.001 | [1] 0.025 | [2] 0.019 | [3] 0.013 | [4] -0.025 | [5] 0.015 | [6] -0.028 | [7] -0.032 | [8] 0.035 | IRAK-1-4 Inhibitor I 0.019

C1orf112 (UniProt Q9NSG2)
inactive: erlotinib -0.053 | [1] 0.015 | [2] 0.079 | [3] -0.008 | [4] -0.057 | [5] 0.026 | [6] 0 | [7] -0.046 | [8] 0.054 | IRAK-1-4 Inhibitor I -0.034

Fetched one by one from the list above (2):
C1orf112 (UniProt Q9NSG2)
inactive: erlotinib -0.053 | [1] 0.015 | [2] 0.079 | [3] -0.008 | [4] -0.057 | [5] 0.026 | [6] 0 | [7] -0.046 | [8] 0.054 | IRAK-1-4 Inhibitor I -0.034

C2orf49 (UniProt Q9BVC5)
inactive: erlotinib -0.001 | [1] 0.025 | [2] 0.019 | [3] 0.013 | [4] -0.025 | [5] 0.015 | [6] -0.028 | [7] -0.032 | [8] 0.035 | IRAK-1-4 Inhibitor I 0.019

Continuation.

C1orf198 (UniProt Q9H425)
inactive: erlotinib -0.024 | [1] -0.039 | [2] 0.05 | [3] -0.045 | [4] -0.041 | [5] 0.049 | [6] -0.045 | [7] -0.183 | [8] -0.024 | IRAK-1-4 Inhibitor I -0.003

CAMSAP1 isoform 3 (UniProt Q5T5Y3)
inactive: erlotinib -0.017 | [1] -0.089 | [2] 0.003 | [3] 0 | [4] -0.036 | [5] 0.013 | [6] -0.011 | [7] -0.001 | [8] 0.008 | IRAK-1-4 Inhibitor I -0.009

CAPG (UniProt P40121)
inactive: erlotinib 0.016 | [1] -0.022 | [2] 0.008 | [3] -0.014 | [4] -0.021 | [5] -0.004 | [6] -0.011 | [7] -0.02 | [8] 0.01 | IRAK-1-4 Inhibitor I 0.027

BYSL (UniProt Q13895)
inactive: erlotinib -0.006 | [1] -0.011 | [2] -0.032 | [3] 0.003 | [4] 0.013 | [5] -0.009 | [6] -0.029 | [7] 0.018 | [8] -0.005 | IRAK-1-4 Inhibitor I 0

C6orf47 (UniProt O95873)
inactive: erlotinib 0.002 | [1] 0.053 | [2] 0.052 | [3] 0.001 | [4] 0.001 | [5] -0.034 | [6] 0.091 | [7] 0.031 | [8] 0.106 | IRAK-1-4 Inhibitor I 0.064

C16orf58 (UniProt Q96GQ5)
inactive: erlotinib -0.013 | [1] -0.001 | [2] -0.145 | [3] 0.021 | [4] 0.02 | [5] 0.044 | [6] -0.113 | [7] 0 | [8] -0.037 | IRAK-1-4 Inhibitor I -0.027

BUB1 (UniProt O43683)
inactive: erlotinib 0.045 | [1] -0.049 | [2] -0.045 | [3] -0.021 | [4] 0.019 | [5] 0.079 | [6] -0.073 | [7] -0.054 | [8] -0.048 | IRAK-1-4 Inhibitor I -0.033

CAND1 (UniProt Q86VP6)
inactive: erlotinib 0.003 | [1] -0.064 | [2] 0.026 | [3] -0.002 | [4] 0.026 | [5] 0.005 | [6] 0.006 | [7] -0.007 | [8] 0.018 | IRAK-1-4 Inhibitor I 0.011

CALU isoform 3 (UniProt O43852)
inactive: erlotinib -0.015 | [1] 0.006 | [2] 0.021 | [3] 0.016 | [4] -0.004 | [5] 0.008 | [6] -0.003 | [7] 0.002 | [8] 0.002 | IRAK-1-4 Inhibitor I 0.006

CAPN15 (UniProt O75808)
inactive: erlotinib 0.01 | [1] 0.187 | [2] -0.011 | [3] -0.028 | [4] -0.104 | [5] -0.05 | [6] 0.026 | [7] 0.019 | [8] 0.031 | IRAK-1-4 Inhibitor I 0.01

C15orf40 (UniProt Q8WUR7)
inactive: erlotinib 0.004 | [1] 0.011 | [2] -0.044 | [3] -0.1 | [4] -0.032 | [5] 0.071 | [6] -0.017 | [7] -0.01 | [8] -0.006 | IRAK-1-4 Inhibitor I 0.003

C8orf33 isoform 2 (UniProt Q9H7E9)
inactive: erlotinib -0.022 | [1] -0.112 | [2] -0.031 | [3] 0.041 | [4] -0.049 | [5] -0.033 | [6] 0.026 | [7] 0.016 | [8] -0.019 | IRAK-1-4 Inhibitor I 0.017

C12orf65 (UniProt Q9H3J6)
inactive: erlotinib 0.051 | [1] 0.092 | [2] -0.046 | [3] 0.083 | [4] -0.009 | [5] 0.011 | [6] 0.031 | [7] 0.056 | [8] -0.074 | IRAK-1-4 Inhibitor I 0.006

C15orf41 (UniProt Q9Y2V0)
inactive: erlotinib 0.008 | [1] 0.073 | [2] 0.032 | [3] 0.112 | [4] -0.097 | [5] 0.014 | [6] -0.04 | [7] -0.028 | [8] -0.076 | IRAK-1-4 Inhibitor I -0.012

CAMK1 (UniProt Q14012)
inactive: erlotinib -0.014 | [1] -0.145 | [2] 0.008 | [3] 0 | [4] 0.037 | [5] -0.011 | [6] 0.135 | [7] 0 | [8] 0.016 | IRAK-1-4 Inhibitor I 0.107

C1orf52 (UniProt Q8N6N3)
inactive: erlotinib -0.023 | [1] -0.036 | [2] 0.01 | [3] 0.014 | [4] -0.027 | [5] 0.037 | [6] 0.03 | [7] 0.003 | [8] -0.01 | IRAK-1-4 Inhibitor I 0.009

C18orf25 (UniProt Q96B23)
inactive: erlotinib -0.025 | [1] -0.315 | [2] -0.086 | [3] 0.015 | [4] 0.001 | [5] 0.003 | [6] 0.004 | [7] 0.005 | [8] 0.029 | IRAK-1-4 Inhibitor I 0.114

CAB39 (UniProt Q9Y376)
inactive: erlotinib -0.015 | [1] 0.003 | [2] -0.013 | [3] -0.01 | [4] 0.006 | [5] 0 | [6] 0.064 | [7] 0.017 | [8] 0.015 | IRAK-1-4 Inhibitor I -0.016

C17orf75 (UniProt Q9HAS0)
inactive: erlotinib -0.006 | [1] -0.028 | [2] 0.017 | [3] 0.028 | [4] 0.104 | [5] 0.001 | [6] 0.017 | [7] 0.002 | [8] -0.011 | IRAK-1-4 Inhibitor I -0.016

BUD31 (UniProt P41223)
inactive: erlotinib -0.03 | [1] -0.032 | [2] 0.006 | [3] 0.017 | [4] -0.032 | [5] 0.007 | [6] 0.063 | [7] 0.023 | [8] 0.01 | IRAK-1-4 Inhibitor I -0.014

CAPZA1 (UniProt P52907)
inactive: erlotinib -0.016 | [1] -0.009 | [2] 0.012 | [3] -0.004 | [4] 0.032 | [5] -0.001 | [6] -0.027 | [7] -0.016 | [8] 0.042 | IRAK-1-4 Inhibitor I 0.018

CARD11 (UniProt Q9BXL7)
inactive: erlotinib -0.03 | [1] -0.051 | [2] 0.016 | [3] 0.061 | [4] -0.168 | [5] -0.048 | [6] -0.022 | [7] -0.042 | [8] 0.013 | IRAK-1-4 Inhibitor I -0.01

C7orf26 (UniProt Q96N11)
inactive: erlotinib -0.068 | [1] -0.016 | [2] 0.063 | [3] -0.053 | [4] -0.203 | [5] -0.037 | [6] -0.076 | [7] 0.026 | [8] 0.118 | IRAK-1-4 Inhibitor I -0.028

C2CD5 isoform 3 (UniProt Q86YS7)
inactive: erlotinib 0.021 | [1] -0.047 | [2] 0.017 | [3] -0.024 | [4] -0.048 | [5] -0.034 | [6] -0.046 | [7] -0.045 | [8] 0.024 | IRAK-1-4 Inhibitor I 0.054

BZW2 (UniProt Q9Y6E2)
inactive: erlotinib -0.022 | [1] -0.011 | [2] -0.036 | [3] -0.011 | [4] 0.016 | [5] -0.023 | [6] -0.001 | [7] 0.021 | [8] -0.013 | IRAK-1-4 Inhibitor I -0.004

C2CD2L (UniProt O14523)
inactive: erlotinib -0.037 | [1] 0.097 | [2] -0.019 | [3] 0.012 | [4] -0.054 | [5] -0.027 | [6] -0.077 | [7] -0.03 | [8] 0.08 | IRAK-1-4 Inhibitor I 0.032
